T1: human LSAMP, expressed on HEK293 cells (human, UniProt Q13449 29-315)
T1 construct: also called BC033803
T1 sequence: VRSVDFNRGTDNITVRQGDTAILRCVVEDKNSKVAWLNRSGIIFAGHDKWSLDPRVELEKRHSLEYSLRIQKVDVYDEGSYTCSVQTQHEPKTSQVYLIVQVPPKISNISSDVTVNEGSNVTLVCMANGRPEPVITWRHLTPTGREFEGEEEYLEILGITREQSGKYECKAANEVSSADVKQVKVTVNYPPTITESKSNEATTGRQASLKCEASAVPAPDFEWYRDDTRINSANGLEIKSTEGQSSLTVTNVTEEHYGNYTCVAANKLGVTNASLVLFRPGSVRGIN

Chains of the proteins cited; added tags and fusions are not shown. Lines headed by an entry give the natural chain unless they say otherwise; changes in a name come on top.
UniProt Q15116: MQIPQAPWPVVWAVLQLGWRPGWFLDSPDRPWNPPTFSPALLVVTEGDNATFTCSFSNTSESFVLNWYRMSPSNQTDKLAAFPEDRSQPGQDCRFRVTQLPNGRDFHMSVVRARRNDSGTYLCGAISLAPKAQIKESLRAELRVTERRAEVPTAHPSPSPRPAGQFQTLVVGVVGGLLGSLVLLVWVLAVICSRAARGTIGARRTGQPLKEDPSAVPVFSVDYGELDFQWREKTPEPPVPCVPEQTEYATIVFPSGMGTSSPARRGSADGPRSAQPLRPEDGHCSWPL

T2: human BTN2A1, expressed on HEK293 cells (human, UniProt Q7KYR7 29-527)
T2 construct: also called NM_007049
T2 sequence: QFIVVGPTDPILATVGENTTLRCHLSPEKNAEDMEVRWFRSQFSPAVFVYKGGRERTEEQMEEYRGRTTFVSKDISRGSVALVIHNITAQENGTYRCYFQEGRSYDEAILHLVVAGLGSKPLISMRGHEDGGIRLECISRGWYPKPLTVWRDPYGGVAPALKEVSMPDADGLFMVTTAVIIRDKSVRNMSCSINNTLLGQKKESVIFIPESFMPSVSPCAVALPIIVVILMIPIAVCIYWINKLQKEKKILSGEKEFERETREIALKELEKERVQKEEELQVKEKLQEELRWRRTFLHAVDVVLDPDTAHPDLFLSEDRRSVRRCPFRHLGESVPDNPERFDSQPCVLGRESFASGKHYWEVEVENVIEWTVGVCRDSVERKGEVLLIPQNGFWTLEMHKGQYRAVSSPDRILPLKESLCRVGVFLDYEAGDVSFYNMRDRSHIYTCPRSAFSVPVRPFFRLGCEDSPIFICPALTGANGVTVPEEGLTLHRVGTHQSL

B1: Clone 20C07, IgG1null format (antibody, V domains shown)
VH: EVQLVESGGGLVQPGGSLRLSCAASGFSFTSYGMSWVRQAPGKGLEWLANIWQDGSTNYVDSVKGRFTISRDNAKNSLYLQMNSLRAEDTAVYYCARAYGNYWYIDRWGQGTTVTVSS
VL: DIVMTQSPDSLAVSLGERATINCKSSQSVSNDVAWYQQKPGQPPKLLINYASHRFTGVPDRFSGSGYGTDFTLTISSLQAEDVAVYYCHQAYSTPYTFGQGTKLEIK
B2: Clone 17D08, IgG1null format (antibody, V domains shown)
VH: B1 VH with S28T, F29L, T30S, S35H, N50V, Q53A, W103M, R107V
VL: B1 VL
B3: Clone 15D07, IgG1null format (antibody, V domains shown)
VH: B1 VH with S35H, L48V, A49G, N50V, A98G, R107V
VL: B1 VL with V33L, H89Q
B4: Clone 17A12, IgG1null format (antibody, V domains shown)
VH: B1 VH with T30S, S35H, T57E
VL: B1 VL with H89Q
B5: Antibody MH8, IgG1null format (antibody, V domains shown)
VH: B1 VH with S28T, T30S, L48V, N58K
VL: B1 VL with S30T, S52Y
notes: Tested as IgG1null (human IgG1 L234A, L235A, G237A) with human Ckappa; also called clone MH8
B6: Clone 11C08, IgG1null format (antibody, V domains shown)
VH: B1 VH with S28T, T30S, M34V, S35H, L48V, A49G, N50V, T57E
VL: B1 VL with V33L, H89Q
B7: Clone 17G08, IgG1null format (antibody, V domains shown)
VH: B1 VH with S28T, T30S, S35H, L48V, A49G, N50V, W52K, T57E
VL: B1 VL
B8: Antibody MH4, IgG1null format (antibody, V domains shown)
VH: B1 VH with F29L, T30S, L48V, N50V
VL: B1 VL with S30T, S52Y
notes: Tested as IgG1null (human IgG1 L234A, L235A, G237A) with human Ckappa; also called clone MH4
B9: Antibody MH12, IgG1null format (antibody, V domains shown)
VH: B1 VH with S28T, T30S, L48V, T57E, N58K
VL: B1 VL with S30T, S52Y
notes: Tested as IgG1null (human IgG1 L234A, L235A, G237A) with human Ckappa; also called clone MH12

Numbering of substitutions follows the chain as printed. In names and notes the source's numbering stands. These are yes or no findings as the source states them, for the method shown. Some entries that bind do so weakly or less than the wild type.

For the first assay, the target named is cynomolgus monkey PD1 human Fc tagged recombinant protein (cynomolgus monkey). Description: direct titration ELISA, IgG1null on coated PD1-Fc.
Regarding B1, the binding result is reported as “binds”.

For B2, the binding result is on record as “binds”.

As to B3, the binding result is recorded as “binds”.

With B4, the binding entry was “binds”.

As for B5, the binding result is given as “binds”.

Regarding B6, the binding result is given as “binds”.

B7: the binding result is “binds”.

B8: the binding result is reported as “binds”.

In the case of B9, the binding entry is recorded as “binds”.

The target in a further assay is human PD1 human Fc tagged recombinant protein (human) (UniProt Q15116). The experiment in a line: direct titration ELISA, IgG1null on coated PD1-Fc. (In general: ELISA stands for enzyme-linked immunosorbent assay.)
For B1, the binding entry was “binds”.

Regarding B2, the binding entry is reported as “binds”.

With B3, the binding result is “binds”.

For B4, the binding entry was “binds”.

Regarding B5, the binding entry is on record as “binds”.

For B6, the binding entry is on record as “binds”.

For the molecule B7, the binding entry is on record as “binds”.

Turning to B8, the binding entry was “binds”.

Consider B9, for which the binding result is “binds”.

The target in the next assay is T1, human LSAMP, expressed on HEK293 cells. Description: flow cytometry on live LSAMP-transfected HEK293 cells, 2 ug/ml IgG. For orientation: Flow cytometry measures light scatter and fluorescence of single cells or particles in a stream.
As to B5, the binding result was “binds”.

As for B9, the binding entry is recorded as “binds”.

Another assay has as its target T2, human BTN2A1, expressed on HEK293 cells. The experiment in a line: flow cytometry on live transfected HEK293 cells. Here is the method:
(§1) FIG. 11. […] Analyses of binding specificity were performed on HEK293 cells transiently transfected with plasmids encoding either human PD1, human BTN2A1, human LSAMP, human CD20 or ZS green marker only. Each antibody was used in staining at […] concentration and histograms are indicated per antibody in this figure.
(§2) Human cell membrane receptor proteome arrays were performed at Retrogenix Ltd. Primary screens: 2 μg/ml of each antibody was screened for binding against fixed HEK293 cells/slides expressing 5528 human plasma membrane and tethered secreted proteins individually. […] Antibody binding was detected using AF647 fluorescent secondary anti-human IgG1 antibody. Primary hits (duplicate spots) were identified by analysing fluorescence (AF647 and ZsGreen1) on ImageQuant. Confirmation/specificity screens: Expression vectors encoding ZsGreen1 only, or ZsGreen1 and CD20, PD1, BTN2A1, or LSAMP were transfected into human HEK293 cells. […] Cells were washed, and incubated with the same AF647 anti-human IgG Fc detection antibody as used in the cell microarray screens. Cells were again washed, and analysed by flow cytometry using an Accuri flow cytometer (BD). A 7AAD live/dead dye was used to exclude dead cells, and ZsGreen1-positive cells (i.e. transfected cells) were selected for analyses.
In the case of B9, the binding entry is listed as “no binding (tested: 2 ug/ml)”.

The target of a further assay is T1, human LSAMP, expressed on HEK293 cells. Description: flow cytometry on live transfected HEK293 cells. As to the method: as §1, §2
For B8, the binding result is “no binding (tested: 2 ug/ml)”.

In a further assay the target is human PD1, membrane-expressed on transfected cells (CHO-K1 stable line, HEK293 transfectants, PD1 effector cells, T cells) (human) (UniProt Q15116). The experiment in a line: Retrogenix cell microarray, fixed HEK293 cells, 2 ug/ml IgG.
For B5, the binding result is reported as “binds”.

In the case of B8, the binding entry is “binds”.

With B9, the binding entry is listed as “binds”.

A further assay concerns the target T1, human LSAMP, expressed on HEK293 cells. The assay is described as above.
Consider B5, for which the binding result is given as “binds”.

B9: the binding result was “binds”.

The target of another assay is human PD1, membrane-expressed on transfected cells (CHO-K1 stable line, HEK293 transfectants, PD1 effector cells, T cells) (human) (UniProt Q15116). The experiment in a line: flow cytometry on live PD1-transfected HEK293 cells, 2 ug/ml IgG.
With B5, the binding result is reported as “binds”.

For the molecule B8, the binding entry was “binds”.

In the case of B9, the binding result is recorded as “binds”.

The values are drawn from US20200332006A1 (ULTRAHUMAN NINE, published 2020).
